PMC10691294
No constants are given. Whether binding was seen depends on the method and setting. In cells and extracts the contact can be indirect. Some results given as binding are weak or reduced against the parent protein; the word gives no strength. For part of these data: Where a sequence is shown, tags or fusion partners need not be part of it.

Chains of the proteins cited; added tags and fusions are not shown.
UniProt Q8N122: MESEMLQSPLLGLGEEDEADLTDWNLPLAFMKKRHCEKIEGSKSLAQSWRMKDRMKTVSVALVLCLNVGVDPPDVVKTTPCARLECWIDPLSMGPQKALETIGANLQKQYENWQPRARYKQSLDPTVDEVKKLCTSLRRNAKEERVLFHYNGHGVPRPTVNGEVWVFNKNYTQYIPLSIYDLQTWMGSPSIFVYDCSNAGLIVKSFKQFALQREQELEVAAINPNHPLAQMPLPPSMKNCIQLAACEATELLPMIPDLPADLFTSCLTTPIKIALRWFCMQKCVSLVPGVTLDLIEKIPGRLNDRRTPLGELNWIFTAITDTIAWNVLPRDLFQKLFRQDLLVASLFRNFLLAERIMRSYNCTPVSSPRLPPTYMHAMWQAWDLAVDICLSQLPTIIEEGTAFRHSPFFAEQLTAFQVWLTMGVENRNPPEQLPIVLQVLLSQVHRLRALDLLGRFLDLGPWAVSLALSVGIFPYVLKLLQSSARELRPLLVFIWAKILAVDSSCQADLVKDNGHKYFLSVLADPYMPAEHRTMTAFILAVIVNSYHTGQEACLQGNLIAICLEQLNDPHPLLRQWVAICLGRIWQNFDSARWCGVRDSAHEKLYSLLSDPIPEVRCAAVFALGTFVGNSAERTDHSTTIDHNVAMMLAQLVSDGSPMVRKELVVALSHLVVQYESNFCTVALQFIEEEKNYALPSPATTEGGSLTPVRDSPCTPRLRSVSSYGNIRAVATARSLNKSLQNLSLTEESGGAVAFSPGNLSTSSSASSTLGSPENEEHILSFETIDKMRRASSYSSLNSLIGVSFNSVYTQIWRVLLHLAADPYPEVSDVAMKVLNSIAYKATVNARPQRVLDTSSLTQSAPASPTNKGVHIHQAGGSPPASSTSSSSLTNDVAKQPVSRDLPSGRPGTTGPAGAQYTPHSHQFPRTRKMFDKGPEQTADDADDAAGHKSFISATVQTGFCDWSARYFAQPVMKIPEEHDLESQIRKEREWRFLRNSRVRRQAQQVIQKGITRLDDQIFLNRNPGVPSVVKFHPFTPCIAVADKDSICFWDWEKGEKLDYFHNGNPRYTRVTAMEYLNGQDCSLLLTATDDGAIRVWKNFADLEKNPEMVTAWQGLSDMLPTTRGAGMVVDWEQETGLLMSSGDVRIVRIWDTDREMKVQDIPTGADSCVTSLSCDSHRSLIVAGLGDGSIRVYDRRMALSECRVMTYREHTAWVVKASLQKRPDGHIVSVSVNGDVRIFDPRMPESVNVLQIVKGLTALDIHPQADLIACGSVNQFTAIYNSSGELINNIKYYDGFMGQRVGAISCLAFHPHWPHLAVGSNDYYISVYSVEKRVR

Tests used:
Flag-tagged USP22 = target: T1, Flag-tagged USP22 (UniProt Q9UPT9); experiment: co-IP; HEK293T cells transfected with Flag-tagged USP22 and Myc-tagged FKBP12 plasmids; whole cell extracts immunoprecipitated with an anti-Myc or anti-Flag antibody, western blot
T1 sequence: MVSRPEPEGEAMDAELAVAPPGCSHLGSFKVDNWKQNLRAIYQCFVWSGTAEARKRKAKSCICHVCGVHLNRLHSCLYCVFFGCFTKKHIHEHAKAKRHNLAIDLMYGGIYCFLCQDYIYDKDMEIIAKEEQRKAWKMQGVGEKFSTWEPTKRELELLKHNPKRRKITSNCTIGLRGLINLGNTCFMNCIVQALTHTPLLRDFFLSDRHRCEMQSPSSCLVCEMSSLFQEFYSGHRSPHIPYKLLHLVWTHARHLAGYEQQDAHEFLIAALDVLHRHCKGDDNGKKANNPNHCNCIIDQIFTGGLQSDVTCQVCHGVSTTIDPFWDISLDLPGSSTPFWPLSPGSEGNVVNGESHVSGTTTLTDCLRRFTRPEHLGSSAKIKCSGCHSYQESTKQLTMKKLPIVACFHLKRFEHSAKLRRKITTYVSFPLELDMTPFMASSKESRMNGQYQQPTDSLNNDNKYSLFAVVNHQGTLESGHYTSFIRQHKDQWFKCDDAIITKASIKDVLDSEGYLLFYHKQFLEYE

[1] = target: T2, Ubiquitin-specific protease 22 (endogenous, SNU-449 cells) (human (endogenous in SNU-449)) (UniProt Q9UPT9); experiment: co-IP; endogenous proteins in SNU-449 cell lysates; lysates precleaned with IgG and Protein A+G agarose, immunoprecipitated with antibody (anti-USP22 for the mTORC1 components) and agarose at 4°C for 2 h, western blot
T2 sequence: T1 sequence

Substance | binding (Flag-tagged USP22) | binding [1]
Myc-tagged FKBP12 (from UniProt P62942 1-108) | binds | –
FK506-binding protein 12 (endogenous, SNU-449 cells) (from UniProt P62942 1-108) | – | binds
regulatory-associated protein of mTOR (endogenous, SNU-449 cells) (from UniProt Q8N122 1-1335) | – | no binding
